This passage reports binding results from article PMC12157921.

Results are given in words; binding and its absence hold for the method and conditions named. In cells and extracts the contact can be indirect. For some of these results: A result given as binding can be weak or reduced; the word gives no strength. Where a sequence is shown, tags or fusion partners need not be part of it.

One assay has as its target HA-TMEM198△OR1. Nature of the assay: co-IP; HEK-293T cells transfected with GFP- or HA-tagged TMEM198 truncations and Flag-nsp4 or GFP-nsp4; cell extracts 24h after transfection; IP-western with indicated antibodies (the precipitating antibody is not named).
Assay [1] has as its target Flag-TMEM198 (transmembrane protein 198). The assay is described as follows: co-IP; 293T cells doubly transfected with Flag-TMEM198 and the tagged viral protein; NP-40 lysis buffer; co-IP with antibody to the Flag tag (anti-tag magnetic beads, overnight at 4°C, five washes with lysis buffer); Western blot.
For a further assay, the target named is GFP-TMEM198-1. The assay is described as follows: co-IP; HEK-293T cells transfected with GFP- or HA-tagged TMEM198 truncations and Flag-nsp4 or GFP-nsp4; cell extracts 24h after transfection; IP-western with indicated antibodies (the precipitating antibody is not named).

B1: GFP-nsp4 (nonstructural protein 4 of TGEV) (protein, UniProt P0C6Y5 2389-2878)
chain: SGFFDVITQLKQIVILVFVFIFICGLCSVYSVATQSYIESAEGYDYMVIKNGIVQPFDDTISCVHNTYKGFGDWFKAKYGFIPTFGKSCPIVVGTVFDLENMRPIPDVPAYVSIVGRSLVFAINAAFGVTNMCYDHTGNAVSKDSYFDTCVFNTACTTLTGLGGTIVYCAKQGLVEGAKLYSDLMPDYYYEHASGNMVKLPAIIRGLGLRFVKTQATTYCRVGECIDSKAGFCFGGDNWFVYDNEFGNGYICGNSVLGFFKNVFKLFNSNMSVVATSGAMLVNIIIACLAIAMCYGVLKFKKIFGDCTFLIVMIIVTLVVNNVSYFVTQNTFFMIIYAIVYYFITRKLAYPGILDAGFIIAYINMAPWYVITAYILVFLYDSLPSLFKLKVSTNLFEGDKFVGNFESAAMGTFVIDMRSYETIVNSTSIARIKSYANSFNKYKYYTGSMGEADYRMACYAHLGKALMDYSVNRTDMLYTPPTVSVNSTLQ
With B1, the binding result with HA-TMEM198△OR1 is recorded as “no binding”; in assay [1] it was “binds”.

B2: Flag-nsp4 (nonstructural protein 4 of TGEV) (protein, UniProt P0C6Y5 2389-2878)
chain: B1 chain
Regarding B2, the binding entry with GFP-TMEM198-1 is “binds”; with HA-TMEM198△OR1, “no binding”.
